Data taken from PubChem BioAssay AID330 (DTP/NCI, 2004).
The list does not hold the whole screen: it gathers tests that were run many times, whatever their T/C, doses with no T/C, and many T/C values between a quarter and a half above the control. Further doses and runs are listed elsewhere. T/C: endpoint of the treated group in % of that of the vehicle group. Some entries give survivors of the animals treated and no T/C: the source files T/C as zero there, which appears to mark a toxic dose or a test without result, not a measured value. Some survivor counts are full or nearly so, which does not show that the dose was tolerated: survival well below the control is almost never listed, so the zero probably covers shortened survival too. Counts of survivors are from the toxicity check (mostly the fifth day) where no day follows; animals may have died later. Schedule codes are those of the source, taken here to give the interval after Q, in days (D) or hours (H), and the number of doses after X. Some doses were run more than once; their values stand side by side, smallest first. For survival time, the PubChem record calls one and a half times the control and up active, and a quarter to a half above the control has no call in these data; cut-offs in other NCI protocols can differ.

Tested on: P388 leukemia ip, CD2F1 mice, survival T/C
Test: NCI In Vivo Anticancer Drug Screen. Data for tumor model P388 Leukemia (intraperitoneal) in CD2F1 (CDF1) mice
Conditions: T/C endpoint: median survival time, higher T/C = longer survival

## CCC1(O)CC2CN(CCc3c([nH]c4ccccc34)C(C(=O)OC)(c3cc4c(cc3OC)N(C)C3C(O)(C(=O)NCCO)C(O)C5(CC)C=CCN6CCC43C65)C2)C1 (configuration not stated)
dose: 0.05 mg/kg/injection, schedule: Q01DX009 (ip), vehicle: saline
  T/C: 136 % of control
dose: 0.1 mg/kg/injection, schedule: Q01DX009 (ip), vehicle: saline
  T/C: 133 % of control
dose: 1.6 mg/kg/injection, schedule: Q01DX009 (ip), vehicle: saline
  survivor count: 3 of 6
dose: 3.2 mg/kg/injection, schedule: Q01DX009 (ip), vehicle: saline
  survivor count: 1 of 6
dose: 5.0 mg/kg/injection, schedule: Q04DX003 (ip), vehicle: saline
  survivor count: 4 of 8
dose: 6.4 mg/kg/injection, schedule: Q01DX009 (ip), vehicle: saline
  survivor count: 0 of 6
dose: 12.8 mg/kg/injection, schedule: Q01DX009 (ip), vehicle: saline
  survivor count: 0 of 6

## O=[N+]([O-])c1cnc(/C=N/N2CCN(/N=C/c3ncc([N+](=O)[O-])[nH]3)CC2)[nH]1
dose: 100.0 mg/kg/injection, schedule: Q01DX009 (ip), vehicle: saline with Tween-80
  survivor count: 6 of 6
dose: 200.0 mg/kg/injection, schedule: Q01DX009 (ip), vehicle: saline with Tween-80
  survivor count: 6 of 6

## N=C(N)c1ccc2[nH]c(/C=C/c3cc4cc(C(=N)N)ccc4o3)cc2c1
dose: 12.5 mg/kg/injection, schedule: Q04DX003 (ip), vehicle: suspension in saline
  T/C: 143 % of control
dose: 100.0 mg/kg/injection, schedule: Q04DX003 (ip), vehicle: suspension in saline
  survivor count: 5 of 6
dose: 200.0 mg/kg/injection, schedule: Q04DX003 (ip), vehicle: suspension in saline
  survivor count: 0 of 6
dose: 400.0 mg/kg/injection, schedule: Q04DX003 (ip), vehicle: suspension in saline
  survivor count: 0 of 6

## CCc1cc2c(cc1C(=O)CBr)C(C)(C)CCC2(C)C
dose: 25.0 mg/kg/injection, schedule: Q01DX009 (ip), vehicle: saline with Tween-80
  survivor count: 4 of 6
dose: 50.0 mg/kg/injection, schedule: Q04DX003 (ip), vehicle: saline with Tween-80
  survivor count: 4 of 6
dose: 100.0 mg/kg/injection, schedule: Q04DX003 (ip), vehicle: saline with Tween-80
  survivor count: 2 of 6
dose: 200.0 mg/kg/injection, schedule: Q04DX003 (ip), vehicle: saline with Tween-80
  survivor count: 0 of 6
dose: 400.0 mg/kg/injection, schedule: Q04DX003 (ip), vehicle: saline with Tween-80
  survivor count: 0 of 6

## COc1ccc2c(c1)[C@@]13CCCC[C@H]1[C@@H](C2)[N+](C)=CC3=NO
dose: 120.0 mg/kg/injection, schedule: Q01DX005 (ip), vehicle: Klucel (hydroxypropylcellulose) (HPC)
  survivor count: 6 of 6
dose: 240.0 mg/kg/injection, schedule: Q01DX005 (ip), vehicle: Klucel (hydroxypropylcellulose) (HPC)
  survivor count: 6 of 6

## COc1cc2c(c(OC)c1OC)-c1ccc(N)c(=O)cc1[C@@H](NC(C)=O)CC2
dose: 2.0 mg/kg/injection, schedule: Q01DX010 (ip), vehicle: saline
  T/C: 127 % of control
dose: 3.12 mg/kg/injection, schedule: Q01DX009 (ip), vehicle: Klucel (hydroxypropylcellulose) (HPC)
  T/C: 131 % of control
dose: 4.0 mg/kg/injection, schedule: Q01DX010 (ip), vehicle: saline
  survivor count: 7 of 7
dose: 6.25 mg/kg/injection, schedule: Q01DX009 (ip), vehicle: Klucel (hydroxypropylcellulose) (HPC)
  survivor count: 6 of 6
dose: 12.5 mg/kg/injection, schedule: Q01DX009 (ip), vehicle: Klucel (hydroxypropylcellulose) (HPC)
  survivor count: 3 of 6 and 6 of 6
dose: 25.0 mg/kg/injection, schedule: Q01DX009 (ip), vehicle: Klucel (hydroxypropylcellulose) (HPC)
  survivor count: 0 of 6 and 3 of 6
dose: 50.0 mg/kg/injection, schedule: Q01DX009 (ip), vehicle: Klucel (hydroxypropylcellulose) (HPC)
  survivor count: 0 of 6 and 2 of 6

## c1cc(-n2nnc3cnccc32)ccn1
dose: 25.0 mg/kg/injection, schedule: Q01DX009 (ip), vehicle: saline
  survivor count: 2 of 6
dose: 50.0 mg/kg/injection, schedule: Q01DX009 (ip), vehicle: suspension in saline
  survivor count: 5 of 6
dose: 100.0 mg/kg/injection, schedule: Q01DX009 (ip), vehicle: suspension in saline
  survivor count: 2 of 6
dose: 200.0 mg/kg/injection, schedule: Q01DX009 (ip), vehicle: suspension in saline
  survivor count: 0 of 6

## O=NC1C(=O)NC(=S)NC1=O
dose: 25.0 mg/kg/injection, schedule: Q04DX002 (ip), vehicle: saline with Tween-80
  survivor count: 4 of 6
dose: 50.0 mg/kg/injection, schedule: Q04DX002 (ip), vehicle: saline with Tween-80
  survivor count: 1 of 6
dose: 100.0 mg/kg/injection, schedule: Q04DX002 (ip), vehicle: saline with Tween-80
  survivor count: 2 of 6
dose: 200.0 mg/kg/injection, schedule: Q04DX002 (ip), vehicle: saline with Tween-80
  survivor count: 0 of 6
dose: 400.0 mg/kg/injection, schedule: Q04DX002 (ip), vehicle: saline with Tween-80
  survivor count: 0 of 6

## Nc1ccc(CCCCc2ccc(Cl)c(S(=O)(=O)F)c2)c(Cl)c1
dose: 400.0 mg/kg/injection, schedule: Q01DX009 (ip), vehicle: saline with Tween-80
  survivor count: 6 of 6
